{"source": "patent US20180243273A1", "about": "“Composition for Intravesical Administration for Treating Bladder Pain” (priority 2017, published 2018)", "experiment": "Storage of compositions with/without nitrogen-gassing and ascorbic acid, assay and impurities", "format": "physicochemical", "conditions": "phosphate buffer", "method": "A possible beneficial effect of nitrogen-gassing during manufacturing and storage was assessed. Selected compositions were manufactured by dissolution of API via stirring for 24 h and stored after treatment with/without nitrogen at 25° C. or 6° C. for up to 28 days.\nThe manufactured batches consisted of phosphate buffer and vitamin E TPGS and were compared to compositions containing ascorbic acid 1%, additionally. API was used at 0.01 wt.-%, 0.02 wt.-% or 0.04 w.-%. The compositions were saturated with API, where 10 mg, 20 mg or 40 mg were dissolved in 100 g buffer containing 0.5 wt.-%, wt.-1% or 2 wt.-% vitamin E TPGS, respectively. The compositions were transferred into polystyrene bottles and stored at 25° C. or 6° C. A part of the compositions was treated with nitrogen during manufacturing and gassed with nitrogen prior to sealing (see FIG. 18). The compositions were tested for assay and purity of API after manufacturing, as well as after 7, 14 and 28 days.", "key": {"[1]": {"conditions": "vitamin E TPGS 0.5%, no Asc., N2 +, API 0.01%, 6° C., t = 7 d"}, "[2]": {"conditions": "vitamin E TPGS 0.5%, no Asc., N2 +, API 0.01%, 6° C., t = 14 d"}, "[3]": {"conditions": "vitamin E TPGS 0.5%, no Asc., N2 +, API 0.01%, 25° C., t = 28 d"}, "[4]": {"conditions": "vitamin E TPGS 1%, Asc. 1%, N2 −, API 0.02%, 6° C., t = 7 d"}, "[5]": {"conditions": "vitamin E TPGS 1%, Asc. 1%, N2 −, API 0.02%, 6° C., t = 14 d"}, "[6]": {"conditions": "vitamin E TPGS 1%, Asc. 1%, N2 −, API 0.02%, 6° C., t = 28 d"}, "[7]": {"conditions": "vitamin E TPGS 1%, Asc. 1%, N2 −, API 0.02%, 25° C., t = 7 d"}, "[8]": {"conditions": "vitamin E TPGS 1%, Asc. 1%, N2 −, API 0.02%, 25° C., t = 14 d"}, "[9]": {"conditions": "vitamin E TPGS 1%, Asc. 1%, N2 −, API 0.02%, 25° C., t = 28 d"}, "[10]": {"conditions": "vitamin E TPGS 1%, Asc. 1%, N2 −, API 0.02%, t = 0"}}, "note": "The source gives many values for each of these; only a part stands here."}
{"smiles": "CN(C)[C@]1(c2cccc(F)c2)CC[C@]2(CC1)c1[nH]c3ccccc3c1CCN2C(=O)/C=C/c1ccccc1", "note": "[API, cis-(E)-4-(3-fluorophenyl)-2′,3′,4′,9′-tetrahydro-N,N-dimethyl-2′-(1-oxo-3-phenyl-2-propenyl)-spiro[cyclohexane-1,1′[1H]-pyrido[3,4-b]indol]-4-amine]", "values": [{"measurement": "Assay", "setting": "[1]", "result": 49.69, "unit": "µg/mL"}, {"measurement": "Impurities", "setting": "[1]", "result": "0.73 % (a/a)"}, {"measurement": "Assay", "setting": "[2]", "result": 49.97, "unit": "µg/mL"}, {"measurement": "Impurities", "setting": "[2]", "result": "0.83 % (a/a)"}, {"measurement": "Assay", "setting": "[3]", "result": 49.80, "unit": "µg/mL"}, {"measurement": "Impurities", "setting": "[3]", "result": "0.87 % (a/a)"}, {"measurement": "Assay", "setting": "[4]", "result": 112.48, "unit": "µg/mL"}, {"measurement": "Impurities", "setting": "[4]", "result": "0.67 % (a/a)"}, {"measurement": "Assay", "setting": "[5]", "result": 112.95, "unit": "µg/mL"}, {"measurement": "Impurities", "setting": "[5]", "result": "0.96 % (a/a)"}, {"measurement": "Assay", "setting": "[6]", "result": 112.97, "unit": "µg/mL"}, {"measurement": "Impurities", "setting": "[6]", "result": "0.91 % (a/a)"}, {"measurement": "Assay", "setting": "[7]", "result": 112.15, "unit": "µg/mL"}, {"measurement": "Impurities", "setting": "[7]", "result": "1.01 % (a/a)"}, {"measurement": "Assay", "setting": "[8]", "result": 113.59, "unit": "µg/mL"}, {"measurement": "Impurities", "setting": "[8]", "result": "1.05 % (a/a)"}, {"measurement": "Assay", "setting": "[9]", "result": 103.54, "unit": "µg/mL"}, {"measurement": "Impurities", "setting": "[9]", "result": "1.63 % (a/a)"}, {"measurement": "Assay", "setting": "[10]", "result": 110.52, "unit": "µg/mL"}, {"measurement": "Impurities", "setting": "[10]", "result": "0.55 % (a/a)"}]}
